According to the supplement of paper PMC6078165:
The reference is the same well before dosing, and untreated signal decays as well.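 Fibroblast labels denote human fibroblasts, mainly primary ones from uterus (C12385, HUF), lung (H6013), bone (Hs27A), adrenal (HADF) and skin (WS1), plus mammary HMF and breast cancer-associated Hs343T. Cancer cells are basal-like or mesenchymal-like triple-negative breast cancer lines. A hit is a response shift exceeding 3x replicate standard deviation. The tissue of the other fibroblasts is not given here.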

System: MDAMB231
Test: relative JC-1 red fluorescence (viability) vs pre-drug, coculture with fibroblast (fraction); higher = more viable cancer cells
Protocol: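 JC-1 labelled TNBC cells cocultured 1:1 (1,500 cells each) with CellTrace Violet stained primary or stromal fibroblasts in 384-well plates in FluoroBrite medium, treated with one of 42 anticancer drugs at 0.1, 1, 10 or 100 uM. JC-1 red fluorescence (mitochondrial integrity in cancer cells only) was read by plate reader every 8 h for 72 h. Values are normalised to each well's pre-drug value. The stock of one drug was tenfold lower, so its dose labels may be too high.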

CC(C)C[C@H](NC(=O)[C@H](Cc1ccccc1)NC(=O)c1cnccn1)B(O)O [Bortezomib]
relative JC-1 red fluorescence
Settings	8 h	16 h	24 h	32 h	40 h	48 h	56 h	64 h	72 h
0.1 µM, coculture fibroblast: C12385	0.7802	0.717	0.774	0.669	0.631	0.654	0.659	0.7296	0.748
0.1 µM, coculture fibroblast: H6013	0.887	0.83	0.799	0.782	0.797	0.858	0.852	0.87	0.861
0.1 µM, coculture fibroblast: H6019	0.811	0.737	0.839	0.846	0.891	0.788	0.831	0.875	0.849
0.1 µM, coculture fibroblast: H6076	0.821	0.765	0.787	0.83423	0.914	0.926	0.968	0.866	0.85
0.1 µM, coculture fibroblast: H6231	0.8783	0.766	0.692	0.652	0.621	0.623	0.627	0.646	0.659
0.1 µM, coculture fibroblast: HADF	0.869	0.8088	0.7549	0.704	0.685	0.725	0.7	0.721	0.717
0.1 µM, coculture fibroblast: HCFa	0.8737	0.7981	0.721	0.668	0.651	0.663	0.629	0.619	0.59
0.1 µM, coculture fibroblast: HCPF	0.893	0.7857	0.707	0.656	0.612	0.584	0.583	0.585	0.606
0.1 µM, coculture fibroblast: HHSteC	0.889	0.856	0.813	0.774	0.757	0.783	0.748	0.758	0.744
0.1 µM, coculture fibroblast: HMF	0.8487	0.767	0.7278	0.7061	0.693	0.677	0.701	0.726	0.762
0.1 µM, coculture fibroblast: HPFa	0.947	0.9	0.853	0.819	0.825	0.783	0.737	0.669	0.797
0.1 µM, coculture fibroblast: HUF	0.823	0.71798	0.776	0.665	0.639	0.672	0.66	0.707	0.707
0.1 µM, coculture fibroblast: Hs5	0.85	0.7936	0.7817	0.768	0.788	0.766	0.778	0.786	0.803
0.1 µM, coculture fibroblast: Hs27A	0.867	0.826	0.778	0.765	0.733	0.754	0.72	0.728	0.703
0.1 µM, coculture fibroblast: Hs343T	0.807	0.71876	0.676	0.659	0.657	0.6625	0.683	0.715	0.747
0.1 µM, coculture fibroblast: WS1	0.772	0.692	0.726	0.618	0.613	0.641	0.648	0.722	0.735
1 µM, coculture fibroblast: C12385	0.751	0.731	0.563	0.483	0.407	0.388	0.364	0.374	0.362
1 µM, coculture fibroblast: H6013	0.873	0.764	0.645	0.59	0.536	0.537	0.518	0.503	0.481
1 µM, coculture fibroblast: H6019	0.794	0.709	0.714	0.669	0.643	0.668	0.66	0.701	0.693
1 µM, coculture fibroblast: H6076	0.9127	0.764	0.639	0.6	0.585	0.578	0.589	0.599	0.617
1 µM, coculture fibroblast: H6231	0.909	0.792	0.656	0.59	0.527	0.508	0.491	0.485	0.486
1 µM, coculture fibroblast: HADF	0.8852	0.825	0.6817	0.59	0.525	0.493	0.456	0.442	0.419
1 µM, coculture fibroblast: HCFa	0.8784	0.783	0.694	0.622	0.58	0.569	0.544	0.527	0.494
1 µM, coculture fibroblast: HCPF	0.905	0.79	0.601	0.528	0.472	0.446	0.418	0.403	0.406
1 µM, coculture fibroblast: HHSteC	0.888	0.8064	0.70347	0.6332	0.563	0.546	0.501	0.482	0.449
1 µM, coculture fibroblast: HMF	0.881	0.742	0.6543	0.587	0.541	0.509	0.49	0.495	0.512
1 µM, coculture fibroblast: HPFa	0.925	0.858	0.74	0.638	0.585	0.566	0.519	0.494	0.457
1 µM, coculture fibroblast: HUF	0.836	0.7236	0.7173	0.62	0.596	0.607	0.574	0.593	0.584
1 µM, coculture fibroblast: Hs5	0.927	0.798	0.666	0.588	0.525	0.466	0.446	0.431	0.424
1 µM, coculture fibroblast: Hs27A	0.866	0.77998	0.6779	0.6251	0.58	0.544	0.521	0.506	0.468
1 µM, coculture fibroblast: Hs343T	0.9592	0.856	0.672	0.588	0.516	0.474	0.431	0.429	0.424
1 µM, coculture fibroblast: WS1	0.748	0.675	0.545	0.427	0.387	0.38	0.364	0.381	0.384
